Results reported in paper PMC10615203, “The 14-3-3 protein OsGF14f interacts with OsbZIP23 and enhances its activity to confer osmotic stress tolerance in rice”.
Negatives hold for the conditions tested. At least one verdict was read from the data and is not stated in words by the source. Tags and fusion partners may be left off the protein sequences shown.

Molecular target: T1, GST-OsbZIP23 (UniProt Q6Z312)
T1 sequence: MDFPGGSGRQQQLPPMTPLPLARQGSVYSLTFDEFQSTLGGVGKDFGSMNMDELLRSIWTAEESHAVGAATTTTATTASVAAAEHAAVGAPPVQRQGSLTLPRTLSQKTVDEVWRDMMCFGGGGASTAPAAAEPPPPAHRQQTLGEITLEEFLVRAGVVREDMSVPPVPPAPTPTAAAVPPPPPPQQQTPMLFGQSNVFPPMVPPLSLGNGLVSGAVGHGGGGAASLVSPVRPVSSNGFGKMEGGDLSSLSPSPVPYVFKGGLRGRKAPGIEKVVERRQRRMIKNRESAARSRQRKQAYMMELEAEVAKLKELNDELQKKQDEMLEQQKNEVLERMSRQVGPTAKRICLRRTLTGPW
Assay: EMSA
Settings: G-box-dependent binding stated, whether mutant was used as probe or competitor not stated; EMSA kit (Viagene) binding buffer (composition not given), room temperature, 20 min; 6% native PAGE; recombinant protein; protein details: GST (N-terminal, pGEX-4T-3)

TGGCGCCTTGCCTTTTGCCCCCTCCCT (double strand) [OsGF14f promoter mutant probe (GF14fm)]
binding result: no binding
